Literature values, collected in paper PMC9736291 (International Journal of Molecular Sciences, 2022).

Settings: cited from earlier work

SMILES: CN1CC[C@]23c4c5ccc(O)c4O[C@H]2[C@@H](O)C=C[C@H]3[C@H]1C5 [morphine]
- Vu,brain: 2.1 mL/g brain
